Source: ChEMBL document CHEMBL3988442, “University of Dundee, Small-Polar-MMV Screening Library” (2021).

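Assay of Toxoplasma gondii numbers, read through their beta-galactosidase reporter with a colour substrate. Compounds at 50 µM. The record gives no direction; the compounds picked for IC50 retests had high values, so higher reads as fewer parasites. About 18,000 compounds were tested under these conditions; 0.94% (about 170) showed 50% or more at least once.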

The filed quantity is “Percent Effect” (%). How 0% and 100% were set is not recorded. Most values in the screen are low, and negative values occur. This is an unselected part of the compounds tested.

CCSc1cc(Cl)ccc1C(=O)NCCC(N)=O gave -11.24%. Cc1ccc(NC(=O)C(C)N2CCC(O)CC2)cc1F (stereo not drawn) gave 0.698%. Result for CNC(=O)c1sc(NC2CC2)nc1C was -5.06%. With O=C(Nc1nccs1)N1CCCN(C(=O)C2CC2)CC1 the screen gave -17.09%. CCOc1ccc(S(=O)(=O)NCCC(C)N)c(C)c1 (stereo not drawn) read -2.063%. CS(=O)(=O)N1CCN(c2ccccc2F)CC1 gave -20.1%.

With CN(C)c1nsc(N2CC[C@@]3(O)CCNC[C@H]3C2)n1 the screen gave -8.556%. With Clc1cnc(NCCNCc2cc[nH]n2)c(Cl)c1 the screen gave 20.5%. Cc1noc(C(C)N2CCNCC2)n1 (stereo not drawn) read 1.811%. Result for Cc1ccc(Cl)c(OCC(=O)NN2CCOCC2)c1 was 6.506%. Result for OC[C@@H](Cc1ccccc1)NC1CCCOC1 (stereo partly drawn) was -1.491%. Result for C=C(Br)CNC(=O)Cc1c(F)cccc1F was 13.79%.

Result for CCc1nc(C)ccc1OCCCS(C)(=O)=O was -7.6%. With CNc1nc(C(=O)NC2COc3ccccc3C2)cs1 (stereo not drawn) the screen gave -0.535%. For OC1CCc2ccccc21 (stereo not drawn) the result was -0.1867%. For COc1ccc(C2NCCNC2=O)cc1 (stereo not drawn) the result was -11.12%. For N#CCC(=O)NC1CCN(CC2CCCC2)CC1 the result was 4.473%. For CCOc1ccc(CN2CCC(O)CC2)cc1 the result was -11.79%.

CC(C)c1nc(CN(C)Cc2cncn2C)no1 gave 28.83%. With CCS(=O)(=O)NCC(=O)NCc1cc(C)c(F)c(C)c1 the screen gave -0.2421%. Result for CC(C)c1nc(CN(C)C(=O)c2ccc(=O)[nH]c2)no1 was -8.105%. With O=C(NC1CCCN(c2cccnc2)C1=O)C1CCC1 (stereo not drawn) the screen gave -5.771%. Result for O=C(CCc1cc(Cl)no1)N1CCCC(O)(CO)C1 (stereo not drawn) was -6.335%. CCOC(=O)N1CCC(NC(=O)c2ccsc2)CC1 read -11.47%.

For Cc1nn(C)c(C)c1NC(=O)NCC(O)c1ccco1 (stereo not drawn) the result was 2.93%. Result for O=C(Cc1cccs1)NCC1CCOCC1 was -9.143%. Result for O=C(CSc1nncs1)NC1COc2ccccc21 (stereo not drawn) was 3.952%. For O=C1CC(Nc2nc(C3CC3)ns2)CN1C1CC1 (stereo not drawn) the result was 20.3%. CN(CC(=O)N1CCNC1=O)Cc1ccco1 gave -8.107%. Result for O=C1CCN(CCOc2cc(F)cc(Br)c2)CCN1 was -1.803%.

For Cc1n[nH]c(C)c1CN1CCCC2(CCNCC2)CC1 the result was 5.288%. For CCS(=O)(=O)N1CC(C(=O)NC)Oc2ccccc21 (stereo not drawn) the result was -6.492%. With O=C(CCc1cccnc1)NCC1(O)CCCNCC1 (stereo not drawn) the screen gave 5.998%. For O=C(OCCc1ccccc1F)C1CCS(=O)(=O)C1 (stereo not drawn) the result was 10.07%. Result for CSc1ccccc1C(=O)NCc1n[nH]c(C)n1 was -6.014%. With CNc1ccnc(C)c1 the screen gave -4.199%.

For CCN1CCCN(c2nc(C3CC3)no2)CC1 the result was 7.828%. COCCC1CN(C(=O)c2ccccc2C#N)CCO1 (stereo not drawn) read 14.32%. Result for NC(=O)C1CCCN1C(=O)C1CCNCC1 (stereo not drawn) was -2.32%.

The last 4 entries again:

SMILES,percent effect
CNc1ccnc(C)c1,-4.199%
CCN1CCCN(c2nc(C3CC3)no2)CC1,7.828%
COCCC1CN(C(=O)c2ccccc2C#N)CCO1 (stereo not drawn),14.32%
NC(=O)C1CCCN1C(=O)C1CCNCC1 (stereo not drawn),-2.32%